Publication PMC9643853, “Synthesis and evaluation of 3-alkynyl-5-aryl-7-aza-indoles as broad-spectrum antiviral agents” (Frontiers in Chemistry, 2022)

Tested on: HEp-2 cells
Conditions: read-out: HEp-2 CC50; uninfected HEp-2 cells, viability reduced by 50%, MTS

`Cc1ccc(CCCO)c(NCc2ccc3nc(NCCCN4CCOCC4)n(Cc4nc(C)ccc4O)c3c2)c1` [TMC353121, reference compound] showed a CC50 of over 10 µM.
